# Laboratory results published in PMC5609913, “Structure based design, synthesis and activity studies of small hybrid molecules as HDAC and G9a dual inhibitors” (Oncotarget, 2017).
# Like-named read-outs stand apart in the source and are kept apart here.
# Legend:
# Format in all cases: cell-based
# [1] = system: MCF-7 cells; assay: Cell anti-proliferation / toxicity assay (CCK-8), MCF-7; settings: Homo sapiens, MCF7
# Procedure: Initial tests designed around assessing whether a synergistic effect would be observed in real when a combination of G9a inhibitor and HDAC inhibitor used in conjunction.
# (§1) Cell anti-proliferation assays were performed to determine the toxicity of these inhibitors. Several cell lines (MDA-MB-231, MCF-7 and A549) were incubated and then treated with varying concentrations of the inhibitors for 72 h, respectively. […] These compounds were further evaluated against the control cell line HEK293 to test their toxicity with a non-cancerous cell line.
# (§2) A549, MDA-MB-231, MCF-7 and HEK293 cells were seeded at 8000-10000 cells (100 μl) in white 96-well plates and pre-incubate the plate for 24 h under standard cell culture conditions, respectively. And then the cells were exposed to the different inhibitors with various concentrations for 72 h. Finally, 10 μl of CCK-8 kit solution was added to each well and incubated for 3-4 hours under standard cell culture conditions, and the 96 well plates were measured the absorbance at 450 nm using Perkin–Elmer Wallac Victor ^3V 1420 multi label plate reader (Perkin–Elmer, Wellesley, USA). EC50s were calculated using GraphPad Prizm statistical package with sigmoidal variable slope dose response curve fit.
# [2] = system: A549 cells; assay: Cell anti-proliferation / toxicity assay (CCK-8), A549; settings: Homo sapiens, Table 6, 72 h, >100 = not reached at highest tested concentration (100 μM)
# Procedure: as §1, §2
# [3] = system: HEK293 cells; assay: Cell anti-proliferation / toxicity assay (CCK-8), HEK293 normal cell line; settings: Homo sapiens, Table 6, 72 h
# Procedure: as §1, §2
structure (smiles),measurement,setting,value
"O=C(CCCCCCC(=O)Nc1ccccc1)NO [SAHA, reference compound]",EC50,"[1]; Table 6, 72 h, CCK-8, mean ± SD of triplicates, read-out: EC50 MCF-7",8.12 ± 4.98 µM
same,EC50,"[1]; read-out: EC50, MCF-7 (combination study)",8.12 ± 4.98 µM
same,EC50,[2],19.3 ± 1.26 µM
same,EC50,[3],2.48 ± 1.13 µM
